Article doi:10.1101/2024.12.01.626218

The chains behind the UniProt entries cited, without tags or fusion partners.
UniProt Q8VIG6: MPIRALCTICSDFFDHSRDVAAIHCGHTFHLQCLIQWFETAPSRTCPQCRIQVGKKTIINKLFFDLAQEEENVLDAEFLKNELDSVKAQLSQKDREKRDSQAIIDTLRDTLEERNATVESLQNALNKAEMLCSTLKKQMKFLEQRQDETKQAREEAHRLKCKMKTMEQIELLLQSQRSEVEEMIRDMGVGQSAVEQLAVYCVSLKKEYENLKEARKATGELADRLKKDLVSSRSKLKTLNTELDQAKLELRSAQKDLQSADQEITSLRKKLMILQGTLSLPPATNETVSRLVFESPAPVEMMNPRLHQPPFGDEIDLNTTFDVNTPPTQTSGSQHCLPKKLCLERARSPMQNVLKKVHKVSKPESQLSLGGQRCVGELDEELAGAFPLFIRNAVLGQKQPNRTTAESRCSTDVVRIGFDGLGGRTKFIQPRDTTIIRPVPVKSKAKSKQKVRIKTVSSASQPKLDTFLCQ
UniProt Q8K3W0: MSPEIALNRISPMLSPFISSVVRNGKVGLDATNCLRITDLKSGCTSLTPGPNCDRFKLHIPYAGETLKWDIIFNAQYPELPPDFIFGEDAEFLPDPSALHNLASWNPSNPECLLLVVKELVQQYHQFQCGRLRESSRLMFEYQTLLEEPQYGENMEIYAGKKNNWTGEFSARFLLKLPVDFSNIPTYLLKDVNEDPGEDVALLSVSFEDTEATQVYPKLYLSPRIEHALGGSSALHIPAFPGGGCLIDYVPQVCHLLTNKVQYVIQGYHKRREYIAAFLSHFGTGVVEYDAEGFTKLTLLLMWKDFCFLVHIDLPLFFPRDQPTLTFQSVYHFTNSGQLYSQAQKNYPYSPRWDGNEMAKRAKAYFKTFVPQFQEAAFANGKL
UniProt Q3UI43: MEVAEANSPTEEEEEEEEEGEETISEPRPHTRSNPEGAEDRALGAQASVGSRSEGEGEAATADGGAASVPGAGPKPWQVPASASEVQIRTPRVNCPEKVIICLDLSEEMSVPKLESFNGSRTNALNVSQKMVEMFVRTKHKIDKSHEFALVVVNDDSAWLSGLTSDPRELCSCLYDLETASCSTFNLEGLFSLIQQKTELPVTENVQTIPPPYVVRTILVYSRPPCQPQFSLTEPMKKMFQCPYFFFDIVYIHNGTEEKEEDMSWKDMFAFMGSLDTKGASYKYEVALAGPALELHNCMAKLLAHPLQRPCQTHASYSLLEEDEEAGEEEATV
UniProt P46737: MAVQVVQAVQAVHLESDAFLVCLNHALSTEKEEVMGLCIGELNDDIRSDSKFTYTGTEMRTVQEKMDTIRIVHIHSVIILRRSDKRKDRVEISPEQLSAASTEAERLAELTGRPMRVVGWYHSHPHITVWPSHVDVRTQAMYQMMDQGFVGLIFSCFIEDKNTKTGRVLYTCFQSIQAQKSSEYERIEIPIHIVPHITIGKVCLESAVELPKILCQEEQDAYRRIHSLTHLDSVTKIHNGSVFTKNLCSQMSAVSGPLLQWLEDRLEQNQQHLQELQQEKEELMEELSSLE

How the values were obtained:
Assay in all cases: affinity purification with mass spectrometry
TRAIP-5FLAG (mouse) [1] = target: TRAIP-5FLAG (mouse) (UniProt Q8VIG6)
TRAIP-i5FLAG (mouse) [2] = target: TRAIP-i5FLAG (mouse) (UniProt Q8VIG6)
TRAIP-5FLAG (mouse) [3] = target: TRAIP-5FLAG (mouse) (UniProt Q8VIG6); remark: listed apart in the source
TRAIP-i5FLAG (mouse) [4] = target: TRAIP-i5FLAG (mouse) (UniProt Q8VIG6); remark: listed apart in the source

Molecule: BABAM2 (from UniProt Q8K3W0 1-383)
binding (TRAIP-5FLAG (mouse) [1]): binds | binding (TRAIP-i5FLAG (mouse) [2]): binds

B1: TTF2 (Transcription Termination Factor 2) (enzyme, UniProt Q5NC05 1-1138)
chain: MDLVKCPEHGDACFLKTGVRDGPNKGKSFYVCRTNTCGFVQATDIPVSHCLLHEEFVVELQGLFLPQDKKEWRLFFRCARTKAEGKQWCGNVPWRQDPNPKELSVTSKPQQPSESQLHSPSQPRNPFRVLNKNQKTLERKQFVEEGERKTADKKLRENNEQLLDQRKEQKPKSNSRMEKDPSSDLVATRQSGGDREEQEKSKFQPKTKKAEGMASKQGHGEVLQGIPKGPHMSESESRGVPNKPETLREKETQLLVPSVPGQNPESKVQKEGHVSREPLKNGEAPSAQVTQRGLAQGPLQGPSKTWRPVPEAPAAPELCSGMAHHATSSSEDSEDDGVSSRPGSPLLFDSTVDSQKKGSLQHSDQSVQRQMPAASGVSKKGDSSDPAAQRANLTTQLKQKKGTLAAVNIQALPDKGEKLLKQIQALEDALSALALSPEQGTKEKCSAQEPEQSNITKAAAAPLHLVPPQPLPRPLIQPASSLGLKAGRQETPEGASQCSGGHMNQHHLYNVWKITSEAIDELHRSLKSCPGETAVAEDPAGLKVPLLLHQKQALAWLLWRESQKPQGGILADDMGLGKTLTMIALILTKKNQQKSKEKERSEPVTWLSKNDSSVFTSSGTLIVCPASLIHHWKNEVEKRVTSNRLRIYLYHGPNRSRHAKVLSTYDIVITTYSLLAKEIPTTKQEGEVPGANLSVEGTSAPLLQVVWARIILDEAHNVKNPRVQTSIAVCKLQAQARWAVTGTPIQNNLLDMYSLMKFLRCSPFDEFSLWKSQVDNGSMKGGERLSILTKSLLLRRTKDQLDSTGKPLVALPARRCQLHRLKLSEDERAVYDIFLARSRSALQSYLKRQEGRGSHHGRSPDNPFSRVAQEFGSSVSQGCPAADSQRPSTVHVLSQLLRLRQCCCHLSLLKSALDPTELESEGLVLSLEEQLSALTLSKVDVSEPSPTVSLNGTCFKAELFDDTRRSTKVSSLLAELEAIQKGPGSQKSVIVSQWTSMLQVVALHLKKNRLTYATIDGSVNPKQRMDLVEAFNHSQGPQVMLISLLAGGVGLNLTGGNHLFLLDMHWNPSLEDQACDRIYRVGQKKDVVIHRFVCEGTVEEKILQLQEKKKDLAKQVLSGSEGPVTKLTLADLKILFGI
binding (TRAIP-5FLAG (mouse) [3]): binds | binding (TRAIP-i5FLAG (mouse) [4]): binds

B2: ABRAXAS1 (protein, UniProt Q8BPZ8 1-407)
chain: MEGESTLGVLSGFVLGALTFHHLNTDSDTEGFLLGEMKGEAKNSITDSQMDNVKVVYTIDIQKYIPCYRLFSFYNSLGEVNEHALKKVLSNVRKTVVGWYKFRRHSDQIMTFREQLLHRNLQTHLSSPELVFLLLTPSITTESCSTHCLEHALYKPQRGLFHRVPLVVTNLGMSDQLGYKTEPASCTSTVFSRAVRTHSSQFFNEDGSLKEVHKINEMYAAVQEELKSICQKVEQSEREVEKLLMDVNQLKEVRRTQQARATGAGEKNVQRNPQENILLCQALRTFFPESEVLHSCVISLKNRHISPSGCNVNHHVDVVDQLTLMVEYVYSPEASPVPTAQLRKRKALDTHDQGSVKRPRLLETESRPSVAASRSRHQDKASSSSLDIDIEMGSPEDDADYPRSPTF
binding (TRAIP-5FLAG (mouse) [3]): binds | binding (TRAIP-i5FLAG (mouse) [4]): binds

B3: RAP80 (protein, UniProt Q5U5Q9 1-727)
chain: MPRRKKKIKEASESQNLEKKDLETSSCVSIKKKRRLEDLLIVISDSDGEETKEENGLQKTKTKQSNRSKCLAKRKVAHMSEEEQFALALKMSEQEAREVNNQEEKEEELLRKAIAESLNSCWSSAASATRSRPLAAELSSHSHQENTKDSGTTEGVWQLVPPSLCKGSHVSQGNEAEQRKEPWDHNENTEEEPVSGSSGSWDQSSQPVFENENVKCFDRCTGHLAEHTQCGKPQESTGSGYAFSKAVQGRGDTSRQCLPIPADTKGLQDTGGTVHYYWGIPFCPAGVDPNQYTNVILCQLEVYQKSLKMAQRQLVKKRGFGEPVLPRPPFLIQNECGQEDQTSDKNEGISEDMGDEAKEERQESRASVWHSETKDFQKSPIKSLKQKLLLEEEPTTSRGQSSQGLFVEETSEEGLKSSEGDNSVPTTQSIAALTSKRSLVLMPESSAEEITVCPETQLSFLEPLDLNREDSPDSRELPIEVRMAVGDKQVANREDCMKENPPPAVSSSTRVSCPLCNQDFPPTKIEQHAMYCNGLMEQETVLTRRRREAKNKSDGRTAAQPALDANRKEKCYLCKSLVPLGEYQCHVEACLQLAKVDREDGIEGTRRPRVCAPVEGKQQQRLKKSKDKGHSQGRLLSLLEQSEHRTTGVEKKPKYSEVRTFRMPSPEVEEASCSREMQSTLSQLNLNESPIKSFVPVSEATNCLVDFKEQFAFRSRTKSGRGRRRKS
binding (TRAIP-5FLAG (mouse) [3]): binds | binding (TRAIP-i5FLAG (mouse) [4]): binds

Continued, values first:

binding (TRAIP-5FLAG (mouse) [1]): binds | binding (TRAIP-i5FLAG (mouse) [2]): binds
Molecule: BABAM1 (from UniProt Q3UI43 1-333)

binding (TRAIP-5FLAG (mouse) [1]): binds | binding (TRAIP-i5FLAG (mouse) [2]): binds
Molecule: BRCC36 (from UniProt P46737 1-291)

Read-outs that look alike come from different tables or passages of the source. Results are given in words; binding and its absence hold for the method and conditions named. Binding seen in cells or lysates may run through a third protein. A yes stands for co-enrichment or nearness to the bait. Other partners may have been found. One block for each molecule: values may come before it.
